One test has as its target Set3-3HA (C. albicans). Put plainly: affinity purification with mass spectrometry; Set3-3HA or Hos2-3HA immunoprecipitated from whole cell extracts with anti-HA (3F10) agarose beads, overnight at 4°C; stringent lysis buffer (PBS with 300 mM NaCl, 1% Triton X-100, 2 mM DTT), six washes; SDS-PAGE, silver-stained bands identified by mass spectrometry.
The target in the next test is Hos2-3HA (C. albicans). Described as above.

Protein sequences, listed by entry. Tags and fused reporters are not part of them. Lines headed by an entry give the natural chain unless they say otherwise; changes in a name come on top.
UniProt A0A1D8PJ17: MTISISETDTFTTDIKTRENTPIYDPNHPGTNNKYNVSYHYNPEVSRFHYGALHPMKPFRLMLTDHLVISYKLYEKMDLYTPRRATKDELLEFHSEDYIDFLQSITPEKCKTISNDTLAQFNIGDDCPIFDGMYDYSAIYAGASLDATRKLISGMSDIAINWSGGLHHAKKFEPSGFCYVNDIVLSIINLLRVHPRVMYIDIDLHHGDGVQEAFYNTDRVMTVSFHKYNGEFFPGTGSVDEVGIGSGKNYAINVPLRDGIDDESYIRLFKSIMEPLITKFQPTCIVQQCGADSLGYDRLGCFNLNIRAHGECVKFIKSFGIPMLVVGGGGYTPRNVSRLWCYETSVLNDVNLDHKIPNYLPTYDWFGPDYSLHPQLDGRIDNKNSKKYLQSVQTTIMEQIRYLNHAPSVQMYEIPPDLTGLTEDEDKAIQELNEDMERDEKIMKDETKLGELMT
UniProt A0A1D8PFV9: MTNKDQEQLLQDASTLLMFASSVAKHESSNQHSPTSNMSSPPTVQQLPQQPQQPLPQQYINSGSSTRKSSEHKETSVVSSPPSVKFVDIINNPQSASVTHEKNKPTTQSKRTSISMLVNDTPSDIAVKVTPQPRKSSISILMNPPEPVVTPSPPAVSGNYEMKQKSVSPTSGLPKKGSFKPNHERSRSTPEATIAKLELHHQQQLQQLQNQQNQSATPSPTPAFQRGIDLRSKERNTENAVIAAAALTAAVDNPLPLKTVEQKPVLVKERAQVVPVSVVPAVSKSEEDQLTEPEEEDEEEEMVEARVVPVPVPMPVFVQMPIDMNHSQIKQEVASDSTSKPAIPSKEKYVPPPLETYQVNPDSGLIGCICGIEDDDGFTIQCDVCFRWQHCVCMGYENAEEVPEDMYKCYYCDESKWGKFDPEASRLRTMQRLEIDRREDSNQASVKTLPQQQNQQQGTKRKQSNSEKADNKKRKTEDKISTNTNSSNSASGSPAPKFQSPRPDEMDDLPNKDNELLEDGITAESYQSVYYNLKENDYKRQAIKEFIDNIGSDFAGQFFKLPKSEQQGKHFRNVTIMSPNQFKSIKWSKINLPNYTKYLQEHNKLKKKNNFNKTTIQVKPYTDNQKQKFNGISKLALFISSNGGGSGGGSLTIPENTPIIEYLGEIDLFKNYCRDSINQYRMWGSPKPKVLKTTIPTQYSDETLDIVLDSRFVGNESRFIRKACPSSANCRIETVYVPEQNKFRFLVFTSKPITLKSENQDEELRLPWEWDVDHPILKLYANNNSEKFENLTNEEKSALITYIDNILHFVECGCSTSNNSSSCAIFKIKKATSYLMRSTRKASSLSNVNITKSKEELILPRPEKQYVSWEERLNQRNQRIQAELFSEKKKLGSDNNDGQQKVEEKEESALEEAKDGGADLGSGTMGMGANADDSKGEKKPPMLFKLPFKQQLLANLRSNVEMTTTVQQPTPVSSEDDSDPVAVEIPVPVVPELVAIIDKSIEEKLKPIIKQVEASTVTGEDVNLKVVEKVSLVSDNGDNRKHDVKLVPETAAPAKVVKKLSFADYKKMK
UniProt A0A1D8PFD3: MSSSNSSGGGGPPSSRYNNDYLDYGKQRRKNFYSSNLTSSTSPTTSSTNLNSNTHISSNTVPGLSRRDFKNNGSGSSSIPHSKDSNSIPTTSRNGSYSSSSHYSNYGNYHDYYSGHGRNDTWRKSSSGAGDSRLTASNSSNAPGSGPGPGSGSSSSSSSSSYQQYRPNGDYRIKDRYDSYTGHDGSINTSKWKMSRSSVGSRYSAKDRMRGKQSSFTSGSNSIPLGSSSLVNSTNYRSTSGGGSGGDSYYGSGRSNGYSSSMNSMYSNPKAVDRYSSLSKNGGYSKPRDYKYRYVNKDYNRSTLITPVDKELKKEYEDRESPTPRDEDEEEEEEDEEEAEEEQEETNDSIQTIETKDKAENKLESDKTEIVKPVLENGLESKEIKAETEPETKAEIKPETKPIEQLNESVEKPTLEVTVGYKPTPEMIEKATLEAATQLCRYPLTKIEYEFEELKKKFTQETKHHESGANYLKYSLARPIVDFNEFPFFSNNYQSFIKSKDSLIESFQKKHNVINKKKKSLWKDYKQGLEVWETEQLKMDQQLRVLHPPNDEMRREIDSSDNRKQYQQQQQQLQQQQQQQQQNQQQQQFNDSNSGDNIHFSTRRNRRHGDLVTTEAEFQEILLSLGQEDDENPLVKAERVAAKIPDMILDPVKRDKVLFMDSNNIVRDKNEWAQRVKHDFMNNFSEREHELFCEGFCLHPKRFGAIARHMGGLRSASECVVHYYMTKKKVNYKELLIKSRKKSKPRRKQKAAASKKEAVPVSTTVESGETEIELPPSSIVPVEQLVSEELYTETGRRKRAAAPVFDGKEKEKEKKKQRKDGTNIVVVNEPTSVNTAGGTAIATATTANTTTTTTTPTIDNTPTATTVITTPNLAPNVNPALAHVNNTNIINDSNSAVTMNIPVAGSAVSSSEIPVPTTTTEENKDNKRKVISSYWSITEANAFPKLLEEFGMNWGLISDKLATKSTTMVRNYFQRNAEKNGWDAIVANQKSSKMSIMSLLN

No constants are given. Whether binding was seen depends on the method and setting. In cells and extracts the contact can be indirect. Here binding means that the protein was enriched with, or labelled near, the bait; the list need not be complete.

In the case of Hos2 (from UniProt A0A1D8PJ17 1-454), the binding result with Set3-3HA (C. albicans) is “binds”.

As for Set3 (from UniProt A0A1D8PFV9), the binding entry with Hos2-3HA (C. albicans) is listed as “binds”.

For the substance Snt1 (from UniProt A0A1D8PFD3 1-1001), the binding result with Hos2-3HA (C. albicans) and with Set3-3HA (C. albicans) was “binds” in each case.

These data come from article PMC3516536.
